Assay results published in patent publication US20110306057A1.
No constants are given. Whether binding was seen depends on the method and setting. In cells and extracts the contact can be indirect. Some binding calls cover weakened binding; strength is not graded here.

Chains of the proteins cited; added tags and fusions are not shown.
UniProt P30153: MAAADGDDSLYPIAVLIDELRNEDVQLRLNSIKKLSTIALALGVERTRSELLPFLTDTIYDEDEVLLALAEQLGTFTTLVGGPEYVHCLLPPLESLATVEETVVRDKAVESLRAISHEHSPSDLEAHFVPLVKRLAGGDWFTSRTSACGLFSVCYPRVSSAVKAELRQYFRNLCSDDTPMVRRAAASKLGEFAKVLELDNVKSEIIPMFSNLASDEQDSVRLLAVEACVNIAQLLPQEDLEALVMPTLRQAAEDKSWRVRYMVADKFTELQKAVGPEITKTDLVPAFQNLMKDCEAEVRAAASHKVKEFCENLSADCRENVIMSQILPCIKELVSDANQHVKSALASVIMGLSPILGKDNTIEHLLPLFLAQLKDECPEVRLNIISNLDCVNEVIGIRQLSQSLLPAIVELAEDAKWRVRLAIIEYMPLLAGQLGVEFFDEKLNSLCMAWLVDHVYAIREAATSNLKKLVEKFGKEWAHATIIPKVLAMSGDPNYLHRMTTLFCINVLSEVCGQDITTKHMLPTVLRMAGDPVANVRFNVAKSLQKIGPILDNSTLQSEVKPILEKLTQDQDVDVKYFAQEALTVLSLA
UniProt P03081: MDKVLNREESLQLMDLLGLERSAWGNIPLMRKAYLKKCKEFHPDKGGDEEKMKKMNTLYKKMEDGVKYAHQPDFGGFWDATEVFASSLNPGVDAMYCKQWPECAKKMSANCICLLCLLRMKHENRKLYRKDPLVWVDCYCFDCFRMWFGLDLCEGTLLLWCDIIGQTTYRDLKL

Molecular target: FLAG-epitope tagged PP2A Aα (UniProt P30153)
Test: GST pull-down with glutathione-agarose from 293T lysates, immunoblot

## GST-tagged SV40 small t antigen (ST) (from UniProt P03081 1-174)
  binding: binds
